Several values for one entry are separate records, joined by “and”; a condition that tells them apart may be missing. Equal values may be shown once. This continues a long series; more values of the same kind are listed elsewhere.
System: anesthetized PAH minipigs
Assay: PAH minipig, intratracheal application of dry powder formulations and of different hydrates (PAP, BP)
Type: in vivo, Göttingen Minipigs
Conditions: 375 μg/kg i.t.; for BP / PAP: % vs. prevalues, each animal
Procedure: Healthy Göttingen Minipigs® Ellegaard (Ellegaard, Denmark) of both sexes and having a weight of 2-6 kg were used. The animals were sedated by i.m. administration of about 25 mg/kg ketamine and about 10 mg/kg azaperone. Anaesthesia was initiated by i.v. administration of about 2 mg/kg ketamine and about 0.3 mg/kg midazolam. Maintenance of anaesthesia was by i.v. administration of about 7.5-30 mg/kg/h ketamine and about 1-4 mg/kg/h midazolam (rate of infusion 1-4 ml/kg/h) and about 150 μg/kg/h pancuronium bromide (for example Pancuronium-Actavis). After intubation, the animals were ventilated by the ventilator at a constant respiratory volume (10-12 ml/kg, 35 breaths/min; Avea®, Viasys Healthcare, USA, or Engström Carestation, GE Healthcare, Freiburg, Germany) such that an end-tidal CO2 concentration of about 5% was achieved. Ventilation was performed with room air, enriched with about 40% oxygen (normoxia). For the measurement of the haemodynamic parameters such as pulmonary arterial pressure (PAP), blood pressure (BP) and heart rate (HR), catheters were inserted into the carotid artery to measure the blood pressure, and a Swan-Ganz® catheter was introduced in a flow-directed manner via the jugular vein into the pulmonary artery. The haemodynamic signals were recorded and evaluated by means of pressure transducers (Combitransducer, B. Braun, Melsungen, Germany)/amplifiers and Ponemah® as data acquisition software.
About 0.3-0.75 μg/kg/min of 9,11-didesoxy-9α,11α-epoxymethanoprostaglandine F2α (U-44069; Sigma, cat. no. D0400, or Cayman Chemical Company, cat. no. 16440), dissolved in physiological saline, were infused to achieve an increase of the mean pulmonary arterial pressure to values of over 25 mmHg.
After characterization of the effects of comparative example 11 after nebulization of compound solutions, in a further step the effects of crystalline forms of comparative example 11, e.g. sesquihydrate, e.g. example 6e on PAP and BP after inhaled application of different dry powder lactose formulations (table 52) were studied in anesthetized PAH minipigs.
As reference pure Lactose vehicle was applied in the beginning of each experiment.

Question: Which results are given for `O.O=C(O)c1ccc(CCN(CCc2ccccc2OCc2ccc(-c3ccc(C(F)(F)F)cc3)cc2Cl)[C@H]2CCCc3nc(C(=O)O)ccc32)cc1.O=C(O)c1ccc(CCN(CCc2ccccc2OCc2ccc(-c3ccc(C(F)(F)F)cc3)cc2Cl)[C@H]2CCCc3nc(C(=O)O)ccc32)cc1` [Example 6a, (5S)—{[2-(4-Carboxyphenyl)ethyl][2-(2-{[3-chloro-4′-(trifluoromethyl)biphenyl-4-yl]methoxy}phenyl)-ethyl]amino}-5,6,7,8-tetrahydroquinoline-2-carboxylic Acid Semihydrate]?
Answer: BP (mean) (time −10, per animal): 99 mmHg and 85 mmHg and 86 mmHg; PAP(mean) (time −10, per animal): 38.7 mmHg (2×) and 40.6 mmHg; BP (time 50): 99.6% and 98.4% and 100.6%; PAP (time 50): 99.3% and 98.7% and 98.9%; BP (time 70): 98.4%; PAP (time 70): 96.1% and 97.0%; BP (time 80): 102.6% and 99.7% and 101.8%; PAP (time 80): 83.4% and 94.5% and 91.2%; BP (time 90): 101.6% and 102.2% and 104.0%; PAP (time 90): 73.4% and 89.2% and 88.7%; BP (time 100): 100.6% and 101.0% and 107.4%; PAP (time 100): 69.0% and 85.0% and 84.7%; BP (time 110): 99.6% and 99.7% and 111.9%; PAP (time 110): 66.5% and 82.4% and 82.1%; BP (time 120): 99.6% and 99.7% and 108.6%; PAP (time 120): 64.4% and 80.8% and 79.7%; BP (time 130): 98.6% and 102.2% and 109.7%; PAP (time 130): 62.8% and 79.9% and 76.7%; BP (time 140): 99.6% and 103.5% and 110.8%; PAP (time 140): 61.8% and 78.7% and 75.7%; BP (time 150): 97.6% and 103.5% and 109.7%; PAP (time 150): 60.9% and 78.0% and 74.3%; BP (time 160): 96.6% and 102.2% and 109.7%; PAP (time 160): 59.9% and 77.1% and 73.1%; BP (time 170): 95.6% and 99.7% and 107.4%; PAP (time 170): 58.6% and 76.7% and 72.3%; BP (time 180): 94.6% and 99.7% and 106.3%; PAP (time 180): 58.0% and 75.4% and 71.8%; BP (time 190): 94.6% and 108.5% and 105.2%; PAP (time 190): 59.5% and 78.4% and 70.7%; BP (time 200): 92.6% and 107.3% and 104.0%; PAP (time 200): 60.5% and 76.8% and 71.1%; BP (time 210): 90.6% and 102.2% and 102.9%; PAP (time 210): 60.6% and 75.5% and 70.8%; BP (time 220): 89.6% and 99.7% and 100.6%; PAP (time 220): 60.3% and 75.1% and 70.3%; BP (time 230): 87.6% and 98.4% and 100.6%; PAP (time 230): 58.7% and 74.1% and 69.1%; BP (time 240): 87.6% and 97.2% and 98.4%; PAP (time 240): 58.9% and 74.2% and 68.0%; BP (time 250): 85.5% and 95.9% and 96.1%; PAP (time 250): 59.0% and 72.7% and 67.9%; BP (time 260): 85.5% and 95.9% and 95.0%; PAP (time 260): 58.8% and 72.5% and 68.0%; BP (time 270): 85.5% and 95.9% and 98.4%; PAP (time 270): 59.6% and 72.4% and 67.3%; BP (time 280): 85.5% and 94.6% and 95.0%; PAP (time 280): 59.3% and 72.6% and 67.8%; BP (time 290): 84.5% and 94.6% and 93.9%; PAP (time 290): 58.8% and 72.6% and 66.7%; BP (time 300): 83.5% and 97.2% and 92.7%; PAP (time 300): 57.9% and 72.2% and 67.1%

Source: patent US20250281480A1, “PHARMACEUTICAL DRY POWDER INHALATION FORMULATION” (Bayer Aktiengesellschaft, priority 2021, published 2025)
